PubChem BioAssay AID504774 – Drosophila RNAi Screening Center – 2011
The deposit covers about 23,000 reagents; this is a random part of those that have a named target and a result. 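Values are quantile-normalised luminescence on an arbitrary scale; higher means more cells surviving MMS.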 A plus sign joins genes that one reagent is predicted to hit. Not all columns of the deposit are shown. No sequences are given here.

Purpose: 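Fly genes whose loss alters survival after alkylation damage to DNA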 (primary screen)
Cells: Drosophila Kc167 cells
Reagents: long dsRNA against Drosophila genes, about 0.25 µg dsRNA per well
Duration: about 6 days: 3 days knock-down, then 3 days with or without MMS
Treatment: methyl methanesulphonate 0.004% (w/v) for 3 days after knock-down
Measurement: 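Viability in wells given MMS, read as ATP luminescence, normalised by quantiles plate by plate and averaged across replicates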
Reading the numbers: mean viability with MMS and viability with MMS: higher = more surviving cells after MMS

target	dsRNA	mean viability with MMS	viability with MMS, replicate 1
CG30376	DRSC05086	3.47e6	3.96e6
CG6700	DRSC02980	3.39e6	3.80e6
RhoU	DRSC17635	3.58e6	4.08e6
RhoU	DRSC17803	3.49e6	4.03e6
RhoU	DRSC17804	3.62e6	4.06e6
RhoU	DRSC22159	3.59e6	4.02e6
RhoU	DRSC22396	3.30e6	3.85e6
modSP (modular serine protease)	DRSC16726	3.68e6	4.27e6
modSP (modular serine protease)	DRSC16857	3.64e6	4.30e6
modSP (modular serine protease)	DRSC21489	3.48e6	3.95e6
CG34310	DRSC00943	3.64e6	3.96e6
Cep97 (Centrosomal protein 97kDa)	DRSC00637	3.58e6	4.04e6
Mal-A6 (Maltase A6)	DRSC07233	3.74e6	4.06e6
Atg10 + CG12822	DRSC06796	3.48e6	4.04e6
dac (dachshund)	DRSC03518	3.35e6	3.80e6
Gagr (Gag-related)	DRSC10441	3.71e6	4.22e6

6 entries from above in another layout:
{"target": "RhoU", "dsRNA": "DRSC22159", "mean viability with MMS": 3.59e6, "viability with MMS, replicate 1": 4.02e6}
{"target": "RhoU", "dsRNA": "DRSC22396", "mean viability with MMS": 3.30e6, "viability with MMS, replicate 1": 3.85e6}
{"target": "modSP (modular serine protease)", "dsRNA": "DRSC16726", "mean viability with MMS": 3.68e6, "viability with MMS, replicate 1": 4.27e6}
{"target": "modSP (modular serine protease)", "dsRNA": "DRSC16857", "mean viability with MMS": 3.64e6, "viability with MMS, replicate 1": 4.30e6}
{"target": "modSP (modular serine protease)", "dsRNA": "DRSC21489", "mean viability with MMS": 3.48e6, "viability with MMS, replicate 1": 3.95e6}
{"target": "CG34310", "dsRNA": "DRSC00943", "mean viability with MMS": 3.64e6, "viability with MMS, replicate 1": 3.96e6}

Next entries follow.
target	dsRNA	mean viability with MMS	viability with MMS, replicate 1
CG34241	DRSC09157	3.52e6	3.97e6
CG11997	DRSC14464	3.46e6	3.91e6
CG9222	DRSC03158	3.68e6	4.31e6
M1BP (Motif 1 Binding Protein)	DRSC16566	2.97e6	3.59e6
Acp95EF (Accessory gland protein 95EF)	DRSC14102	3.54e6	4.03e6
Or85f (Odorant receptor 85f)	DRSC16769	3.57e6	4.06e6
Ank (Ankyrin)	DRSC17127	3.43e6	3.83e6
BCL7-like	DRSC17729	3.63e6	4.31e6
Ect3 (Ectoderm-expressed 3)	DRSC15462	3.41e6	3.82e6
THADA	DRSC19675	3.61e6	4.09e6
CG2120	DRSC18207	3.64e6	4.29e6
AANATL2 (Arylalkylamine N-acetyltransferase-like 2)	DRSC03227	3.56e6	4.11e6
CG15615	DRSC06568	3.48e6	3.93e6
CG14147	DRSC10149	3.65e6	4.10e6
rngo (rings lost)	DRSC19903	1.83e6	4.04e6
CG42809 + CG42810	DRSC02532	3.74e6	4.05e6
CG42809 + CG42810	DRSC02533	3.70e6	4.23e6
Patr-1 (Protein associated with topo II related - 1)	DRSC14159	3.15e6	3.63e6
CG12288	DRSC02155	3.58e6	4.08e6
CG18139 (retired record) + Hmx	DRSC15307	3.37e6	3.75e6
tilB (touch insensitive larva B)	DRSC20634	3.52e6	4.11e6
CG6294 + CG6299	DRSC19980	3.58e6	4.01e6
Dh31 (Diuretic hormone 31)	DRSC02196	3.48e6	4.05e6
Hat1 (Histone acetyltransferase 1)	DRSC12298	3.67e6	4.30e6
CG4025	DRSC18523	3.58e6	4.16e6
CG34430	DRSC06499	3.57e6	4.06e6
hob (hobbit)	DRSC08426	3.70e6	4.17e6
lap (like-AP180)	DRSC12628	3.67e6	4.15e6
Sf3a1 (Splicing factor 3a subunit 1)	DRSC15166	3.01e6	3.63e6
Fuca (alpha-L-fucosidase)	DRSC10591	3.50e6	3.89e6
